Measurements from the supplement of paper PMC10735217.
Structures can show the parent of a compound that is named as a salt. Some of the results follow. This data set is noisy: repeats of one test often differ as much as different tests do.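 The human kidney-derived cells carry a stably integrated construct of eight TEAD-binding elements driving luciferase, read by luminescence in a drug-repurposing library screen. A compound counts as a hit when its signal is more than five robust Z scores above the plate mean.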

Tested on: HEK293A TEAD-LUC reporter
Test: TEAD-luciferase reporter activity (YAP activation), robust Z score vs plate; higher = stronger YAP/TEAD activation
Settings: 24 h

Structure (SMILES)	TEAD-luciferase reporter activity (compound concentration: 200 nM)	TEAD-luciferase reporter activity (compound concentration: 2 uM)	TEAD-luciferase reporter activity (compound concentration: 10 uM)
COc1cc([C@@H]2c3cc4c(cc3C(O[C@@H]3O[C@@H]5CO[C@H](C)O[C@H]5[C@@H](O)[C@H]3O)C3COC(=O)C32)OCO4)cc(OC)c1O (some centres not stated) [etoposide]	inactive: -3.26	inactive: -1.87	inactive: -2.32
CC(C)NC[C@H](O)COc1ccc(O)cc1 [prenalterol]	inactive: -0.593	inactive: -1.11	inactive: -1.88
C[C@H](Sc1nc(N)cc(Cl)n1)c1cc2ccoc2cn1	inactive: 0.385	inactive: 0.81	inactive: -1.48
O=[Si]([O-])[O-] [copper, antifungal, Conve]	inactive: 0.285		inactive: 1.21
O=[Si]([O-])[O-] [copper, antifungal]		inactive: -0.196	
CCS(=O)(=O)Nc1cccc(C(N)C(=O)N[C@@H]2C(=O)N3C(C(=O)O)=C(OC)CS[C@H]23)c1 (some centres not stated)	inactive: -0.86	inactive: -0.0216	inactive: -0.823
CC(C)N/C(=N/C#N)Nc1cccnc1	inactive: -1.51	inactive: -1.14	inactive: -0.803
Cc1nc(N2CCN(C)CC2)c2nc(-c3ccccc3Cl)n(C3CCOCC3)c2n1	inactive: 0.352	inactive: -0.461	inactive: -0.525
CCN(CC)CC(C)(C)COC(=O)c1ccc(-c2ccc(C(F)(F)F)cc2)o1	inactive: -1.39	inactive: -0.531	active: 6.29
Fc1ccc(-c2cncc(CN3CCN(c4cccc5c4OCCO5)CC3)c2)cc1 [Adoprazine hydrochloride]	inactive: -1.64	inactive: -0.915	inactive: -1.13
CCCCNc1nc(C)c(C(=O)c2ccc3nc(NC(=O)OC)[nH]c3c2)s1	inactive: -0.567	inactive: 4.19	inactive: 4.54
CC1(C)CCC(C)(C)c2cc(Cn3cccn3)c(/C=C/c3ccc(C(=O)O)cc3)cc21 [palovarotene]	inactive: -0.888	inactive: -0.0217	inactive: 0.0463
CCCCCNCCOC(=O)c1ccc(N)cc1	inactive: 0.185	inactive: -2.17	inactive: 0.781
CCCCN(Cc1ccc(-c2ccccc2-c2nnn[nH]2)cc1)c1ncncc1C(=O)O	inactive: -0.484	inactive: -0.549	inactive: -1.09
CNC(=O)c1ccccc1Sc1ccc2c(/C=C/c3ccccn3)n[nH]c2c1 [Axitinib]	active: 5.21		inactive: 3.62
CNC(=O)c1ccccc1Sc1ccc2c(/C=C/c3ccccn3)n[nH]c2c1 [axitinib (topical)]		inactive: -0.65	
CC1(C)S[C@@H]2[C@H](NC(=O)C(NC(=O)c3c[nH]c4nc(N5CCN(C=O)CC5)ncc4c3=O)c3ccc(O)cc3)C(=O)N2[C@H]1C(=O)O (some centres not stated)	inactive: -0.13	inactive: 1.21	inactive: 1.23
COc1nc(N)c2ncn(C3CCCC3)c2n1	inactive: -1.7	inactive: -0.174	inactive: 2.2

Structure (SMILES)	TEAD-luciferase reporter activity (compound concentration: 200 nM)	TEAD-luciferase reporter activity (compound concentration: 2 uM)	TEAD-luciferase reporter activity (compound concentration: 10 uM)
CC(C)N(CCC(CCN1CCCCC1)(C(N)=O)c1ccccc1Cl)C(C)C (configuration not stated) [disobutamide]	inactive: -0.446	inactive: 1.96	inactive: -0.976
COC(=O)CCNC(=O)C1CSC(C)N1 (configuration not stated)	inactive: 0.432	inactive: -1.1	inactive: -0.0126
NC(CO)(CO)CCc1ccc(Sc2cccc(OCc3ccccc3)c2)cc1Cl	inactive: 3.3	inactive: -1.27	inactive: 1.65
CC(C)=CCC/C(C)=C/CC/C(C)=C/CCC(=O)OC/C=C(\C)CCC=C(C)C	inactive: -0.739	inactive: 0.231	inactive: 2.28
CNCc1ccc(-c2[nH]c3cc(F)cc4c3c2CCNC4=O)cc1 [rucaparib]	inactive: 0.641	inactive: 0.443	inactive: 1.5
Cc1c(-c2ccccc2)oc2c(C(=O)OC(C)(C)CN3CCCCC3)cccc2c1=O	inactive: -0.222	inactive: 0.417	inactive: 0.343
Nc1nc(NC2CC2)c2ncn([C@H]3C=C[C@@H](COC(=O)CO)C3)c2n1 [Abacavir acetate]	inactive: 1.61	inactive: 0.221	inactive: -0.218
COc1ccc2cc1Oc1cc3c(cc1OC)CC[N+](C)(C)[C@H]3Cc1ccc(cc1)Oc1c(OC)c(OC)cc3c1[C@@H](C2)[N+](C)(C)CC3 [Chondocurarine, derivative of]	inactive: -2.33	inactive: -1.41	inactive: 2.58
C[C@@H]1C[C@H]2[C@@H]3CCC4=CC(=O)C=C[C@]4(C)[C@@]3(F)[C@@H](O)C[C@]2(C)[C@@]1(O)C(=O)CO		inactive: -1.58	
C[C@@H]1C[C@H]2[C@@H]3CCC4=CC(=O)C=C[C@]4(C)[C@@]3(F)[C@@H](O)C[C@]2(C)[C@@]1(O)C(=O)CO [Dexamethasone50-02-2]	inactive: -0.391		inactive: 0.907
Cc1c(OC(C)c2ccc(CC(C)C)cc2)ccc(C(=O)Nc2ccccc2OCCCC(=O)O)c1C (configuration not stated)	inactive: -1.33	inactive: -0.268	inactive: -0.738
O=[N+]([O-])c1c(Cl)cccc1-c1c[nH]cc1Cl	inactive: 0.634	inactive: -0.768	inactive: 0.759
Cn1ncc(NCCN2CCC(c3noc4cc(F)ccc34)CC2)c(Cl)c1=O	inactive: -0.099	inactive: -1	inactive: -1.03
Cn1c(=O)oc2cc(-n3cc(C(=O)O)c(=O)n([C@@H]4CCc5c4cccc5C(F)(F)F)c3=O)ccc21	inactive: 3.02		inactive: -0.0362
CN1CC[C@@H](NC(=O)Nc2ccc(C#N)cc2)C[C@@H]1c1nc2ccccc2[nH]1 [glasdegib]	active: 5.54	inactive: 1.84	inactive: -1.09
CC[C@H](C)C(=O)O[C@H]1C[C@@H](C)C=C2C=C[C@H](C)[C@H](CC[C@@H]3C[C@@H](O)CC(=O)O3)[C@H]21	inactive: 2.6		inactive: -1.8
CC[C@H](C)C(=O)O[C@H]1C[C@@H](C)C=C2C=C[C@H](C)[C@H](CC[C@@H]3C[C@@H](O)CC(=O)O3)[C@H]21 [lovastatin, LovaDerm]		inactive: -1.61	

Another view of some results above:
Structure (SMILES) | TEAD-luciferase reporter activity (compound concentration: 200 nM) | TEAD-luciferase reporter activity (compound concentration: 2 uM) | TEAD-luciferase reporter activity (compound concentration: 10 uM)
COc1ccc2cc1Oc1cc3c(cc1OC)CC[N+](C)(C)[C@H]3Cc1ccc(cc1)Oc1c(OC)c(OC)cc3c1[C@@H](C2)[N+](C)(C)CC3 [Chondocurarine, derivative of] | inactive: -2.33 | inactive: -1.41 | inactive: 2.58
C[C@@H]1C[C@H]2[C@@H]3CCC4=CC(=O)C=C[C@]4(C)[C@@]3(F)[C@@H](O)C[C@]2(C)[C@@]1(O)C(=O)CO |  | inactive: -1.58 | 
C[C@@H]1C[C@H]2[C@@H]3CCC4=CC(=O)C=C[C@]4(C)[C@@]3(F)[C@@H](O)C[C@]2(C)[C@@]1(O)C(=O)CO [Dexamethasone50-02-2] | inactive: -0.391 |  | inactive: 0.907
